Measurements reported in PubChem BioAssay AID504791 (Drosophila RNAi Screening Center, 2011).
Purpose: 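Genes whose knock-down strengthens or weakens small-RNA reporter silencing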 (primary screen). System: Drosophila S2-derived reporter cells. Knock-down reagent: long dsRNA against Drosophila genes, about 150-250 ng dsRNA per well (siRNA assay); about 80-120 ng (miRNA assay). Time to read-out: about 5 days (siRNA assay); about 4 days (miRNA assay). Challenge: copper sulfate induction of reporters: 25 µM (siRNA assay); 200 mM stated (miRNA assay), 1-2 days before reading. Read-out: 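Dual luciferase assay: Renilla to firefly signal ratio in each well, scaled to the mean ratio of its plate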. Hit rule: 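a well was a first-pass pick when its plate-scaled ratio rose above 1.5 (siRNA assay) or 1.6 (miRNA assay), or dropped below 0.6; a gene counted only if two separate dsRNAs agreed on retest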.
The deposit covers about 23,000 reagents; this is an unselected part of those with a known target gene and a result. Over the whole deposit, 199 (0.86%) were called active. 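Plate-scaled ratios behind the calls are not deposited; printed light signals are raw; many rows marked increased or decreased are still called inactive.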 Entries without a mark were called inactive. Names joined by + are all predicted targets of the reagent. Not given: the direction of the score.

| gene | amplicon | miRNA reporter change | stable assay Renilla, run 1 (luminescence) | stable assay firefly, run 1 (luminescence) |
| --- | --- | --- | --- | --- |
| Pgm2b | DRSC05978 | – | 6998 | 3.68e5 |
| mthl2 | DRSC10287 | – | 6487 | 3.58e5 |
| Klp67A + CG34456 | DRSC10420 | – | 7286 | 6.80e5 |
| CG4927 | DRSC06903 | – | 6695 | 3.21e5 |
| Nlg2 | DRSC03578 | – | 9419 | 4.48e5 |
| Rdl | DRSC11264 | – | 7256 | 3.81e5 |
| ox | DRSC07520 | – | 4943 | 3.25e5 |
| usp | DRSC18847 | – | 6311 | 4.09e5 |
| Pus10 | DRSC00629 | – | 11200 | 5.90e5 |
| CG7423 | DRSC20044 | – | 7531 | 3.97e5 |
| PGRP-LF | DRSC28930 | reporter ratio lowered past the hit cutoff | – | – |
| promL | DRSC08733 | – | 10604 | 4.25e5 |
| Myd88 | DRSC06815 | – | 8696 | 4.88e5 |
| wtrw | DRSC14241 | – | 9329 | 4.72e5 |
| wtrw | DRSC15278 | – | 4264 | 4.52e5 |
| CG9003 | DRSC07317 | – | 5626 | 3.03e5 |
| CG13563 | DRSC22153 | – | 9183 | 5.87e5 |
| Cyp309a1 | DRSC00747 | – | 7500 | 4.47e5 |
| CG10341 | DRSC02040 | – | 67337 | 1.00e6 |
| s-cup | DRSC06277 | – | 4899 | 2.23e5 |
| s-cup | DRSC06278 | – | 5063 | 2.72e5 |
| Myo10A | DRSC19834 | – | 6686 | 6.95e5 |
| Myo10A | DRSC19837 | – | 5323 | 4.24e5 |
| CG33262 | DRSC22893 | – | 4208 | 3.93e5 |
| CG1607 | DRSC15130 | – | 8347 | 4.91e5 |
| apn | DRSC15124 | – | 7066 | 5.00e5 |
| CG32299 + CG32298 | DRSC07980 | – | 5847 | 3.92e5 |
| CG32299 + CG32298 | DRSC22354 | – | 8182 | 5.57e5 |
| Cyp4p1 | DRSC07372 | – | 6959 | 4.65e5 |
| VhaM9.7-d | DRSC15028 | – | 7390 | 4.33e5 |
| CG3104 | DRSC00567 | – | 7977 | 5.75e5 |
| Pcif1 | DRSC11655 | – | 12378 | 4.18e5 |
| CG32202 | DRSC09989 | – | 8305 | 4.62e5 |
| CG34375 | DRSC14684 | – | 6775 | 3.98e5 |
| CG34375 | DRSC14685 | – | 6723 | 2.84e5 |
